These are yes or no findings as the source states them, for the method shown. In cells and extracts the contact can be indirect. Binding can be weak; no strength is given. Sequences can lack the tags named with a protein.
Experiments:
RUFY4-GFP (human) = target: T1, RUFY4-GFP (human) (UniProt Q6ZNE9); assay: co-IP; lysates of HEK293T cells transfected with GFP-tagged proteins, magnetic GFP-Trap 2 h at 4 °C (25 mM HEPES pH 7.4, 0.2% NP-40, 0.5 mM Mg-ATP, 50 mM potassium acetate); immunoblot for endogenous DIC and p150Glued
T1 sequence: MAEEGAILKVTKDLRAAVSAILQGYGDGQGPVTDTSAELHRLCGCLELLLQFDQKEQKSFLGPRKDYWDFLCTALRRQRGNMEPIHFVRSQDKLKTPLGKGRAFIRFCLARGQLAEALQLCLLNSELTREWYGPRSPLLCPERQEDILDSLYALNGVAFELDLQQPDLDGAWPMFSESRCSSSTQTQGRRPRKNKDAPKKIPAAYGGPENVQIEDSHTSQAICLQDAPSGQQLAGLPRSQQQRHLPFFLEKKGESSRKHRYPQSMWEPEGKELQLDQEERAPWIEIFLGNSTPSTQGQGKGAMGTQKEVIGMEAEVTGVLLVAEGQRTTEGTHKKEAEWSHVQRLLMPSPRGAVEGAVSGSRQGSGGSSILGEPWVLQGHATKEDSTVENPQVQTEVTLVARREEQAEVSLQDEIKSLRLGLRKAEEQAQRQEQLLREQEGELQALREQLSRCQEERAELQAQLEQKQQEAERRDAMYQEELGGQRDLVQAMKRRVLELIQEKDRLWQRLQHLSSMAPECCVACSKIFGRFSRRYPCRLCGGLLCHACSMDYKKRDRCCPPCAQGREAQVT

RUFY3.1-GFP (human) = target: T2, RUFY3.1-GFP (human) (UniProt Q7L099); assay: as above
T2 sequence: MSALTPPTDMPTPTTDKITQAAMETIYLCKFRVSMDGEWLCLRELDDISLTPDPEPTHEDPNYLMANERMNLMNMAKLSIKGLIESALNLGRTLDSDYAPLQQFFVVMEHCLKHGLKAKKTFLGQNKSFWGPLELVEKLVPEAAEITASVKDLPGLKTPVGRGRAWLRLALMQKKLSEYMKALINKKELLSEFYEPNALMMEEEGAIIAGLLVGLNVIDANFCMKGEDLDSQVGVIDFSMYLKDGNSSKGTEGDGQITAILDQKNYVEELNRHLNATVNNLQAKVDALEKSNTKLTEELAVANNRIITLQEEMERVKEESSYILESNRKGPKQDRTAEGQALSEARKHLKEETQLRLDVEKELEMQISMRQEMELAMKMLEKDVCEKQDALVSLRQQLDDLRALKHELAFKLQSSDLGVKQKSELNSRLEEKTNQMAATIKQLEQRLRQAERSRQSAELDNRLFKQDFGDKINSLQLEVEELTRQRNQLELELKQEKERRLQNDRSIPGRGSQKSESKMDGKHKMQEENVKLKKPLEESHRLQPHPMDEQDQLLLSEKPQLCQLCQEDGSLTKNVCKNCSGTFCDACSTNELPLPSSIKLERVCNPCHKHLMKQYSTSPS

[1] = target: T3, 6His-StrepII-sfGFP-RUFY3 (human) (UniProt Q7L099); assay: pull-down; 40 ug purified 6His-StrepII-sfGFP proteins mixed with cleared HEK293T lysate and Strep-Tactin Sepharose overnight at 4 °C (25 mM HEPES pH 7.4, 0.2% NP40, 1 mM Mg-ATP, 50 mM potassium acetate); immunoblot for endogenous DIC and p150Glued; only the target purified
T3 sequence: T2 sequence

Measured: binding

dynein intermediate chain (DIC), endogenous (human (endogenous in HEK293T))
binds: all assays above

Source: PMC8938451
